# Screening data, single-dose tests

Mtb glucose medium: 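Phenotypic screen: M. tuberculosis growth, glucose 7H9 medium, 3 days; the read-out is not stated. Tested at 50 µM. Higher reads as more growth inhibition (inferred: compounds with an IC50 in retests scored well above the rest). About 69,000 compounds were tested under these conditions; 1.1% (about 760) showed 50% or more at least once.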
Mtb cholesterol medium: 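Whole-cell growth test on Mycobacterium tuberculosis, read after 4 days in a medium based on cholesterol and the lipid DPPC; the read-out is not stated. Concentration: 50 µM. The record gives no direction; compounds that gave an IC50 in retests scored well above the rest, so higher reads as more growth inhibition. Of about 69,000 compounds tested this way, about 370 (0.54%) reached 50% or more in at least one test.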

Values are the deposited “Percent Effect”, in %.
The record does not define 0% and 100%; most values in the screen are far below 50% and negative numbers occur (in some assays of this library far below -100).
This is an unselected part of the compounds tested.
Two or more numbers in one place are separate tests of the same structure; such repeats can differ widely.

| structure | Mtb glucose medium | Mtb cholesterol medium |
|---|---|---|
| `C[S+]([O-])c1nncn1CC(=O)c1cccc(Cl)c1` (centres undefined) | -1.291 | 4.279 |
| `COCCN1CCC2(CC1)CCN(Cc1ccccn1)CC2.O=C(O)C(F)(F)F.O=C(O)C(F)(F)F` | -30.61 | -3.358 |
| `O=C(O)C(F)(F)F.O=C1COC2(CCN(C(=O)C3CC=CC3)CC2)CN1Cc1cccnc1` | 14.42 | 11.22 |
| `Cc1csc(C(C)(C)NCC(=O)N2CCCC(C(F)(F)F)C2)n1` (centres undefined) | -24.58 | -14.09 |
| `Cc1cc(-c2nn3c(C)nnc3s2)n[nH]1` | -24.04 & -7.549 | -17.02 |
| `CC(C)NC(=O)CCNC(=O)CCc1cc(Cl)cs1` | 4.795 | -9.399 & 3.969 |
| `CNC(=O)CCc1cc(C)nc(C2CCCN2)c1` (centres undefined) | 33.92 | 0.5003 |
| `O=C(Cc1n[nH]c2ccccc12)N1CCCCC1Cn1cccn1` (centres undefined) | 19.2 | -5.162 |
| `CCCC(=O)N1CCC(N2CC[C@@](O)(CCOC)[C@H](C)C2)CC1` | 2.014 | 19.99 |
| `CCc1noc(-c2cccc(NC(=O)C(C)(C)C)c2)n1` | 21.01 | 1.621 |
| `Cc1ccc(CN(CCN(C)C)Cc2ncc[nH]2)s1` | 3.481 & -1.776 | 13.27 |
| `COCCn1nc(C(=O)N2CCOCC2C)ccc1=O` (centres undefined) | -35.57 | -13.55 |
| `COc1c(CNC2CCN(C(=O)C3CC3)CC2)c(C(C)C)nn1C` | -6.434 | -12.86 |
| `N[C@@H]1c2ccccc2C2(CCN(c3ccc(C(F)(F)F)cn3)CC2)[C@H]1O` | 39.57 | 13.01 |
| `Cc1ccc(C(=O)N2CCN(c3ncnc4nc(N)ccc34)CC2)o1` | 16.81 & 3.463 | 10.53 |
| `CC(C)OCCSCc1nnc(-c2cccc(F)c2)o1` | 49.47 | 26.54 |
| `Cn1cc(CC2CCN(C(=O)NCCCc3ccc(O)cc3)C2)cn1` (centres undefined) | 3.894 | 2.012 |
| `N#Cc1cc(NC(=O)c2ccncc2)ccc1N1CCC(O)CC1` | -4.157 & 3.062 | 23.71 |
| `COC(=O)CC(NC(=O)c1cccc(CS(C)(=O)=O)c1)c1cccs1` (centres undefined) | -49.49 | -17.96 |
| `CC1(c2ccccc2)CCC(=O)N(CCN2CCCOC2=O)C1` (centres undefined) | -0.9885 | -2.16 |
| `[H][C@@]12CCCO[C@]1([H])[C@@H](OC)CN2Cc1ccccc1F` | 6.906 & -0.03995 | -5.545 |
| `CN(C)CCN(C)C(=O)c1cnc2c(c1)nc(-c1ccccc1Cl)n2C` | 27.02 | 1.666 |
| `CCCN(CC)c1ccc(C(=O)N2CCCC2c2cnn(C)c2)cn1` (centres undefined) | -21.13 | -29.19 |
| `CC(C)(C)n1ncc2c1CCCC2NCc1ccc2c(c1)CCO2` (centres undefined) | 1.026 | -9.544 |
| `CC(C(=O)N1CCN(C)CC1)n1cc(Br)cn1` (centres undefined) | -0.5996 | -0.1278 |
| `CC(=O)c1cc2c(=O)[nH]c(=O)n(C)c2nc1C` | -5.795 & 8.234 | 10.92 |
| `Cc1ccsc1C(=O)NCc1cccnc1N(C)CCc1ccccn1` | 14.43 | 14.81 |
| `COc1cccc(N2CCN(CC[C@H](O)c3ccccc3)CC2=O)c1` | 20.57 | 2.518 |
| `CCN1CCC(N2CCC(C(=O)N(C)C)CC2)CC1.O=C(O)C(F)(F)F.O=C(O)C(F)(F)F` | 0.4039 | 0.2276 |
| `CNS(=O)(=O)c1ccc(C)c(C(=O)NCCNc2ncccn2)c1` | 0.3666 | -13.07 |
| `CCOc1ccc(OCC(O)CN2CCN(S(C)(=O)=O)CC2)cc1` (centres undefined) | -4.86 | 2.532 |
| `CN1CCCC1CNC(=O)CCCOc1ccc(I)cc1` (centres undefined) | -2.795 | 2.535 |
| `COc1cccc(CN(C)Cc2cccc(C#N)c2)c1OC` | 18.48 | 1.689 & 10.52 |
| `Cc1cc(C)nc(N2CC=C[C@@H]2C(=O)NCc2ccc3c(c2)OCO3)n1.Cl` | 15.11 | 18.61 |
| `O=C(O)C(F)(F)F.O=C(O)C(F)(F)F.[H][C@@]12CCCO[C@]1([H])[C@H](OCCCn1cccn1)CN2c1nnc(C)s1` | 31.54 | 1.369 |
| `[H][C@@]12CS(=O)(=O)C[C@]1([H])N(C(=O)Cc1cccs1)CCN2C(=O)COC` | -5.213 | -18.62 |
| `COc1cccc(F)c1C(=O)N1C[C@@H](CN(C)CCO)[C@@H](CO)C1` | -14.53 | -12.21 |
| `O=C(NC[C@H]1OC[C@@H](NCc2ccccn2)[C@@H]1O)N1CCOCC1` | -1.445 & -3.531 | -0.01109 |
| `[H][C@@]12CN(Cc3ccc(F)c(F)c3)C[C@]1([H])OCC(=O)N2Cc1nccn1C` | -0.4031 & -17.34 | -19.62 |
| `CC(=O)N1CCc2nc(C3CCN(C(=O)c4ccccc4)C3)ncc2C1` (centres undefined) | -14.28 | -20.86 |
| `COc1cccc(CN(C)C(=O)CN2CCN(CCO)CC2)c1` | -4.946 | -29.11 |
| `CC(=O)N(C)[C@H]1CC[C@]2(CC1)CNC(=O)c1cc(C)ccc1O2` | 9.951 | -6.047 |
| `CCC(NC(=O)c1cc(CC(C)C)nn1C)c1cccc(C)n1` (centres undefined) | 12.74 & 12.51 | -16.31 |
| `O=C(O)C(F)(F)F.[H][C@@]12COC[C@]1(CNS(=O)(=O)CC)CN(Cc1sccc1C)C2` | 30.76 | -0.3985 |
| `O=C(CCc1ccccn1)N1CCc2cc(Cl)cc(Cl)c2C1` | 7.992 | 1.955 |
| `CCc1ccc(S(=O)(=O)Nc2cn(C)cc(Br)c2=O)cc1` | 19.71 | 27.01 |
| `CNC(=O)C1(c2cnccn2)CCCN1C(=O)c1ccccc1F` (centres undefined) | 16.42 | -2.018 |
| `CCN1Cc2cc(OC)ccc2N(CC(C)(C)O)CCC1=O` | -24.47 | -24.05 |
| `Cc1ccc(CN2CCC3(C2)C(=O)N(CC(C)C)c2ccccc23)s1` (centres undefined) | 43.87 | -10.35 & 2.905 |
| `Cc1nc(C2CCCN(C(=O)c3c(C)nn4cccnc34)C2)no1` (centres undefined) | 9.774 | -0.829 |
| `COc1ccc(C2Nc3ccccc3C3=NCCCN32)cc1OC` (centres undefined) | -6.257 | -5.944 |
| `O=C(CCc1ccccc1F)N1CCC(Nc2cccnn2)CC1` | 21.08 | 17.7 |
| `CC1(C)Oc2ccc(NC(=O)c3ccc(=O)[nH]n3)cc2O1` | 28.43 & 5.931 | 1.414 |
| `O=C(CCCn1nnc(-c2ccc(F)cc2)n1)N1CCOCC(CO)C1` (centres undefined) | -12.7 | -21.08 |
| `O=C(NC1CCCCC1)C1CCCN(C(=O)Nc2ccccn2)C1` (centres undefined) | -1.476 | -10.88 |
| `NC(=O)C1CCN(C(=O)CCn2ccc3cc(Br)ccc32)CC1` | 13.54 & -2.026 | 1.169 |
| `CCCN1CCC2(C1)c1ccccc1S(=O)(=O)N2Cc1ccc(F)cc1` (centres undefined) | -9.456 & 12.29 | 1.44 |
| `Cc1noc(C)c1CSCc1csc(CS(C)(=O)=O)n1` | 11.13 | 9.941 |
| `CCOC(=O)N1CCN(C(=O)c2sc(-c3ccncc3)nc2C)CC1` | 0.06756 | -40.13 |
| `Cc1ccc(C(O)CNC(=O)NCc2c(C)cc(C)[nH]c2=O)cc1` (centres undefined) | 20.97 | -12.47 |
| `CC(C)Cn1ccnc1CNC(=O)N1CCCC1CN1CCOCC1` (centres undefined) | -19.16 | 1.678 |
| `Cc1ccccc1CNC(=O)CNc1ccc(OC2CCOC2)cc1` (centres undefined) | 28.05 | 13.25 |
| `Cc1csc2c(C3CCN(CCOc4ccccc4F)CC3)nc(C)n12` | -25.09 | 3.214 & -1.1 |
| `Cn1cc(Br)c(=O)c(NS(=O)(=O)c2ccccc2F)c1` | 3.07 & 4.363 | 19.43 |
| `Cc1noc(C)c1CC(=O)OCc1nc(N)c2ccccc2n1` | 4.326 & -25.96 | -16.59 |
| `CCC1CCCCN1Cc1ncc(-c2ccc(OC)cc2)o1` (centres undefined) | 14.74 & -0.2921 | 14.87 |
| `CC(C)(C)S(=O)(=O)CCNC(=O)NCCCc1cccc(F)c1` | -17.28 | -21.88 |
| `O=C(O)C(F)(F)F.O=C(O)C(F)(F)F.O=C(O)C(F)(F)F.[H][C@@]12OCCN(Cc3cccnc3)[C@@]1([H])CC[C@H]2OCc1csc(C)n1` | -39.21 | -36.57 |
| `CCc1ccc(NS(=O)(=O)CC2=NC(=O)n3cccc3C2=O)cc1` | 28.46 | 1.196 |
| `Cc1cnn(CCNCC(=O)NCC2(c3ccccc3)CC2)c1` | -13.5 | -23.05 |
| `CC(c1cccc(S(N)(=O)=O)c1)N(C)CCc1ccccc1` (centres undefined) | -14.96 | -21.45 |
| `Cn1cc(CN2CCOC3(CCCN(c4cccc(F)c4)C3)C2)cn1.O=C(O)C(F)(F)F.O=C(O)C(F)(F)F` (centres undefined) | -18.14 | 12 & 15.09 |
| `CS(=O)(=O)c1ccccc1-n1cc(NC(=O)CC2C=CCC2)cn1` (centres undefined) | 29.52 & 1.942 | 25.83 |
| `Cn1cc(C[C@H]2[C@@H](O)CCN2C(=O)c2ccc[nH]2)cn1` | -4.083 | -8.394 & 6.159 |
| `Cc1c(F)cc(C(=O)O)cc1S(=O)(=O)Nc1ccccc1` | -19.9 | 17.74 |
| `O=C(COCC(F)(F)F)NC1CCCc2cc(OC(F)F)ccc21` (centres undefined) | 51.08 | 35.57 |
| `CC(CN1CCOCC1)n1cncc1-c1ccc2c(c1)CCCN2C.Cl` (centres undefined) | 23.17 | 4.947 |
| `O=C(NCc1c(F)cccc1F)C1CN(C(=O)c2cnccn2)C1` | 2.403 & -10.93 | 10.12 |
| `CCNC(=O)CCCC(=O)N1CCc2cc(Cl)cc(Cl)c2C1` | 71.36 | 39.33 |
| `CNC(=O)c1cccnc1NCCOc1ccccc1` | -10.2 | 2.677 |
| `CCc1cc(-c2cc[nH]n2)nc(N2CCCC2)n1` | -6.992 | 21.14 |

The last 6 entries again:

structure,Mtb glucose medium,Mtb cholesterol medium
O=C(COCC(F)(F)F)NC1CCCc2cc(OC(F)F)ccc21 (centres undefined),51.08,35.57
CC(CN1CCOCC1)n1cncc1-c1ccc2c(c1)CCCN2C.Cl (centres undefined),23.17,4.947
O=C(NCc1c(F)cccc1F)C1CN(C(=O)c2cnccn2)C1,2.403 & -10.93,10.12
CCNC(=O)CCCC(=O)N1CCc2cc(Cl)cc(Cl)c2C1,71.36,39.33
CNC(=O)c1cccnc1NCCOc1ccccc1,-10.2,2.677
CCc1cc(-c2cc[nH]n2)nc(N2CCCC2)n1,-6.992,21.14

Measurements from “University of Dundee, Small-Polar-MMV Screening Library” (2021), ChEMBL document CHEMBL3988442.